# Data reported in publication PMC12384166.
# Protein sequences, listed by entry. Tags and fused reporters are not part of them.
# UniProt Q8K1M6: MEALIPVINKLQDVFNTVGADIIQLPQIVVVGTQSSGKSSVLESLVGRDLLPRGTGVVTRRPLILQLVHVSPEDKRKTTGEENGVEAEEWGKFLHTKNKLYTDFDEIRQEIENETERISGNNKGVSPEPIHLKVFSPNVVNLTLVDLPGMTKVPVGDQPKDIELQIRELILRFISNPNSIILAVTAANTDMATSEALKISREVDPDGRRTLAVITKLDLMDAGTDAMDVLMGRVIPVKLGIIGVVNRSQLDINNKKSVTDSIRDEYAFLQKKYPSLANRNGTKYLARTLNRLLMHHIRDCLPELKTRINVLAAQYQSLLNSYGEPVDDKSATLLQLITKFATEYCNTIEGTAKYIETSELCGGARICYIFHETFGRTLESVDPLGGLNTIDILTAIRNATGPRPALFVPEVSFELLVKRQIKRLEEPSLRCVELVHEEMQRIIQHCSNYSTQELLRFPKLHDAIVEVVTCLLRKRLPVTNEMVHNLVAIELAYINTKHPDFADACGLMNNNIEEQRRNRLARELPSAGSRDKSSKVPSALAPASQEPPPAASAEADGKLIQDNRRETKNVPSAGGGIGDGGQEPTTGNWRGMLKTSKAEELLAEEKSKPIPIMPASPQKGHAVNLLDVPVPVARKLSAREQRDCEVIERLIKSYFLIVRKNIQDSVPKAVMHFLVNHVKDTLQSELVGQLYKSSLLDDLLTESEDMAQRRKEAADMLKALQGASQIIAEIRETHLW
# No constants are given. Whether binding was seen depends on the method and setting. Some results given as binding are weak or reduced against the parent protein; the word gives no strength.
# Biological target: dynamin-related protein 1 (DRP1) (mouse (endogenous in mouse heart)) (UniProt Q8K1M6)
# Assay: native gel or EMSA; Cyt, SR and MAM fractions solubilised with 3% digitonin; first dimension 3-12% light blue native PAGE, second dimension 4-12% Bis-Tris SDS-PAGE; blot for DRP1
substance,measurement,value
dynamin-related protein 1 (DRP1) (from UniProt Q8K1M6 1-736),binding,binds
